Some of these results come from one statement about several compounds together.
Test system: SKOV-3 tumour cells
Assay: Intranuclear trafficking into cancer cells, scored by immunofluorescence
Assay type: cell-based, human
Conditions: 100 μg/ml concentration
From the text: FIG. 2 Intranuclear trafficking of ANTP and ANTP-p21 conjugates into the nuclei of SKOV-3 tumour cells.
Cells, into which the protein had penetrated intranuclearly, were scored positive by immunofluorescence.

ANTP: Antennapedia cell-penetrating peptide, 60 amino acid sequence, recombinant
time of trafficking to the nucleus after penetrating cancer cells: 1 to 3 h
